Laboratory results reported in doi:10.1101/2023.07.20.549975.
Like-named read-outs stand apart in the source and are kept apart here. Results are given in words; binding and its absence hold for the method and conditions named. For part of these data: In cells and extracts the contact can be indirect. Some entries that bind do so weakly or less than the wild type. Where a sequence is shown, tags or fusion partners need not be part of it.

Chains of the proteins cited; added tags and fusions are not shown.
UniProt P49597: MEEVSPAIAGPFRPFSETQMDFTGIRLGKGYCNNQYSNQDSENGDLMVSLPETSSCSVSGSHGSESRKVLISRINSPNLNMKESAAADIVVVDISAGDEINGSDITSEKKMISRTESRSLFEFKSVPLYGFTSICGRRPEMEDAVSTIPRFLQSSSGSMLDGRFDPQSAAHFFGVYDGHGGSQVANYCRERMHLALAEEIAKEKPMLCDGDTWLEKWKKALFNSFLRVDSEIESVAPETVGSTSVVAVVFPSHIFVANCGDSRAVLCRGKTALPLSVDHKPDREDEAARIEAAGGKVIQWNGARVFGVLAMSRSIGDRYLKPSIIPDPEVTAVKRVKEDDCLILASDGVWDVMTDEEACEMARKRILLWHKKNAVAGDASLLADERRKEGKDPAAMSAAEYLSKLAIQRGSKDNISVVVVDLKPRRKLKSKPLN

Experiments:
[1] = biological target: T1, CPK5, cLuc fusion for the split-luciferase assay (Arabidopsis thaliana) (UniProt Q38871); assay: split reporter
T1 sequence: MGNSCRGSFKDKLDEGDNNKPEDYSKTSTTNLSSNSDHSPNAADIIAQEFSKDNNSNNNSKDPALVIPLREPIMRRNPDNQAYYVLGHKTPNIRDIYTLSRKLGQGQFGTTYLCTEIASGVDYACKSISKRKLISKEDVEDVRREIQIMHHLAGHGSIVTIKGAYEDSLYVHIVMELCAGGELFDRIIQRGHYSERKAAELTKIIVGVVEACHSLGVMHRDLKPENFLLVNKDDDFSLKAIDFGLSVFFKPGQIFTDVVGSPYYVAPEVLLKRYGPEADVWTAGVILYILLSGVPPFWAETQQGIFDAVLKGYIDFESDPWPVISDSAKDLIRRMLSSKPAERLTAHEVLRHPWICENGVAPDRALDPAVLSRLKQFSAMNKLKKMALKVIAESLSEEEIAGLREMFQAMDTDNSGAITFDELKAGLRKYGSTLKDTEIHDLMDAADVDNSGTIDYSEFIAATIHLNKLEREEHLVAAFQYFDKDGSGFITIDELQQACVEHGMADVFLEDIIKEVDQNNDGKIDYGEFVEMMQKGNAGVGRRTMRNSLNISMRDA

[2] = biological target: T2, calcium-dependent protein kinase 5 (CPK5), full-length, yeast two-hybrid fusion (Arabidopsis thaliana) (UniProt Q38871); assay: two-hybrid
T2 sequence: T1 sequence

[3] = biological target: T2, calcium-dependent protein kinase 5 (CPK5), full-length, yeast two-hybrid fusion (Arabidopsis thaliana); assay: two-hybrid; remark: listed apart in the source

Which binding [1] does the source give for “ABI1, nLuc fusion for the split-luciferase assay (from UniProt P49597 1-434)” here?
Its binding is “binds”.

With “ABI1, yeast two-hybrid fusion (from UniProt P49597 1-434)” as the molecule, how does the binding [2] read?
The binding was “binds”.

B1: HAI1, yeast two-hybrid fusion (protein, UniProt Q9FIF5 1-413)
chain: MAEICYENETMMIETTATVVKKATTTTRRRERSSSQAARRRRMEIRRFKFVSGEQEPVFVDGDLQRRRRRESTVAASTSTVFYETAKEVVVLCESLSSTVVALPDPEAYPKYGVASVCGRRREMEDAVAVHPFFSRHQTEYSSTGFHYCGVYDGHGCSHVAMKCRERLHELVREEFEADADWEKSMARSFTRMDMEVVALNADGAAKCRCELQRPDCDAVGSTAVVSVLTPEKIIVANCGDSRAVLCRNGKAIALSSDHKPDRPDELDRIQAAGGRVIYWDGPRVLGVLAMSRAIGDNYLKPYVISRPEVTVTDRANGDDFLILASDGLWDVVSNETACSVVRMCLRGKVNGQVSSSPEREMTGVGAGNVVVGGGDLPDKACEEASLLLTRLALARQSSDNVSVVVVDLRRDT
Which binding [3] does the source give for B1 here?
The binding was “binds weakly”.
